Out of some 320,000 compounds screened, about 22,000 (6.9%) were called active. This list was built around the results that the source calls inconclusive (neither active nor inactive); the mix of calls is not that of the screen. The call rests on the fitted dose curve; in most records, active means well fitted inhibition curve with a large enough effect; inconclusive means small, poorly fitted or top-dose-only effect, or another doubt; inactive means no such curve, though single readings can be large or run the other way. Potencies beside an inconclusive call are fits to weak or partial responses and may not hold up.
assay: Primary qHTS for delayed death inhibitors of the malarial parasite plastid, 96 hour incubation; settings: P. falciparum luciferase reporter growth; series mostly up to 28.7 µM
Method in brief: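 Luminescence readout: decreased luciferase signal marks inhibited growth of reporter-expressing P. falciparum in infected red cells (2% hematocrit, 0.05% parasitemia final), exposed to compound two generations (96 h, 37 C, 5% CO2).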
On the % scale 0 is the no-effect control and ±100 the full control effect; potency means the concentration at half of the fitted maximal effect.

Question: With CN(C)c1ccc(NC(=O)c2cccc(C(=O)Nc3ccc(N(C)C)cc3)n2)cc1 as the compound, how does the Potency read?
Answer: Its Potency is active: 8.28 µM.

Question: With CCn1c(SCC(=O)c2ccc(C)cc2)nnc1-c1ccoc1C as the compound, how does the Potency read?
Answer: The Potency was active: 14.7 µM.

Question: Which Potency does the source give for CN(C)S(=O)(=O)c1cccc(NC(=O)/C=C/c2ccccc2[N+](=O)[O-])c1 here?
Answer: The Potency was inconclusive: 18.5 µM [inhibitor, single point].

Question: For COc1ccc(-c2nnc(SCC(=O)N3CCCCC3)o2)cc1, which Potency is on record?
Answer: The Potency was “inactive”.

Question: With COc1ccc(-c2nn(-c3ccccc3)cc2C(=O)N2CCN(S(=O)(=O)c3ccccc3C#N)CC2)cc1 as the compound, how does the Potency read?
Answer: The Potency was active: 9.28 µM.

Question: With O=C(Cn1nc(Cl)nc1Cl)c1ccc(F)cc1 as the compound, how does the Potency read?
Answer: The Potency was inconclusive: 13.1 µM [inhibitor, single point].

Question: With COc1cccc(OC)c1NC(=O)CN1CCC(NC(=O)c2cccc(F)c2)CC1 as the compound, how does the Potency read?
Answer: Its Potency is inconclusive: 9.28 µM [inhibitor, partial curve, poor fit].

Question: With COCCN1CN(S(=O)(=O)c2ccc(Cl)cc2)c2nc3ccccc3nc21 as the compound, how does the Potency read?
Answer: The Potency was inconclusive: 13.1 µM [inhibitor, single point].

Question: With CCC(=NC1CCN(Cc2ccccc2)CC1)c1c(O)[nH]c(=O)[nH]c1=O as the compound, how does the Potency read?
Answer: The Potency was active: 5.22 µM.

Question: With Cc1ccc(C2C(C(=O)c3cccs3)=C(O)C(=O)N2CCN2CCOCC2)o1 (centres undefined) as the compound, how does the Potency read?
Answer: The Potency was inconclusive: 0.0262 µM [inhibitor, full curve, poor fit].

Question: For O=C(O)CC1COc2ccccc2N1S(=O)(=O)c1ccc(Br)cc1 (centres undefined), which Potency is on record?
Answer: Its Potency is “inactive”.

Question: For COc1cccc(COc2ccc3ccc(=O)oc3c2)c1, which Potency is on record?
Answer: Its Potency is “inactive”.

Question: With C/C=C/c1ccc(OC(C)=O)c(OC)c1 as the compound, how does the Potency read?
Answer: Its Potency is “inactive”.

Question: For CCOC(=O)c1c(S(=O)(=O)Nc2ccc(CN3CCC(C)CC3)cc2)c(C)n(C)c1C, which Potency is on record?
Answer: Its Potency is inconclusive: 11.7 µM [inhibitor, partial curve, poor fit].

Question: Which Potency does the source give for CC(C)(C)NC(=O)CN(C(=O)CN1C(=O)C(=O)c2ccccc21)C(C)(C)C here?
Answer: Its Potency is active: 13.1 µM.

Question: Which Potency does the source give for Cn1c2ccccc2c(=O)c2cc(C#CC3=CCCCC3)ccc21 here?
Answer: The Potency was inconclusive: 16.5 µM [inhibitor, single point].

Question: Which Potency does the source give for Cc1cc(CNC(=O)CC2C(=O)NCCN2Cc2ccccc2C(F)(F)F)nn1C (centres undefined) here?
Answer: Its Potency is inconclusive: 7.38 µM [inhibitor, partial curve, poor fit].

Question: With COc1cccc(-n2cc(CN(C)Cc3nc(Cc4cccc(F)c4)no3)cn2)c1 as the compound, how does the Potency read?
Answer: The Potency was inconclusive: 10.4 µM [inhibitor, partial curve].

Question: Which Potency does the source give for CC(C)c1cccc(C(C)C)c1NC(=O)CNCc1ccccc1F here?
Answer: Its Potency is “inactive”.

Question: With O=C(CN1C(=O)NC2(CCCC2)C1=O)N1CCN(S(=O)(=O)c2ccccc2Br)CC1 as the compound, how does the Potency read?
Answer: The Potency was “inactive”.

Question: With Cc1nn(-c2ccccc2)cc1/C=N/NS(=O)(=O)c1ccccc1 as the compound, how does the Potency read?
Answer: Its Potency is “inactive”.

Question: Which Potency does the source give for O=C(NCc1cccs1)C1CCN(S(=O)(=O)c2ccc(Cl)cc2)CC1 here?
Answer: Its Potency is inconclusive: 10.4 µM [inhibitor, single point].

Question: With Cc1ccc(C)c(N/C(N)=N/c2nc(C)cc(C)n2)c1 as the compound, how does the Potency read?
Answer: The Potency was inconclusive: 18.5 µM [inhibitor, single point].

Question: Which Potency does the source give for CCCN(CCC)Cc1c(C(=O)N/N=C/CCc2ccccc2)nnn1-c1nonc1N here?
Answer: Its Potency is active: 9.28 µM.

Question: For O=C(Cc1c(Cl)cccc1Cl)OCc1ccccn1, which Potency is on record?
Answer: Its Potency is inconclusive: 20.8 µM [inhibitor, single point].

Question: For CCCN1C2CCCC1CC(NC(=O)c1cc(OC)cc(OC)c1)C2 (centres undefined), which Potency is on record?
Answer: The Potency was inconclusive: 10.4 µM [inhibitor, single point].

Question: With CC(=O)COC(=O)C1CCN(S(=O)(=O)c2cc([N+](=O)[O-])ccc2Cl)CC1 as the compound, how does the Potency read?
Answer: Its Potency is “inactive”.

Question: For COc1ccc(NC(=O)c2c(N)no[n+]2[O-])c(OC)c1, which Potency is on record?
Answer: Its Potency is “inactive”.

Question: For Cc1ccc(-c2nnn(C(C)C(=O)N3c4ccccc4CCc4ccccc43)n2)cc1 (centres undefined), which Potency is on record?
Answer: Its Potency is active: 11.7 µM.

Question: With COc1ccc(-c2[nH]ncc2/C=C(/C#N)C(=O)NC2CCCCC2)cc1 as the compound, how does the Potency read?
Answer: Its Potency is active: 7.38 µM.

Question: Which Potency does the source give for Nc1cc(=O)[nH]c(SCc2nc3ccccc3n2Cc2ccccc2)n1 here?
Answer: The Potency was inconclusive: 18.5 µM [inhibitor, single point].

Question: For Cc1c(C(=O)N(C)c2ccccc2)oc2c1C(O)CC(C)(C)C2 (centres undefined), which Potency is on record?
Answer: Its Potency is inconclusive: 18.5 µM [inhibitor, single point].

Question: With CC(C)CNC(=O)COC(=O)c1c2c(nc3ccccc13)CCC2 as the compound, how does the Potency read?
Answer: Its Potency is inconclusive: 16.5 µM [inhibitor, single point].

Question: For C=CCN(c1ccccc1)S(=O)(=O)c1ccc2[nH]cc(C(=O)NCCOC)c(=O)c2c1, which Potency is on record?
Answer: The Potency was active: 4.65 µM.

Question: With C=CCn1c(O)c(C(C)=Nc2ccc3c(c2)CCC3)c(=O)[nH]c1=O as the compound, how does the Potency read?
Answer: The Potency was “inactive”.

Question: With Cc1c(C)n(CCc2ccccc2)c2ncnc(NCCCN(C)C)c12 as the compound, how does the Potency read?
Answer: Its Potency is inconclusive: 0.131 µM [inhibitor, full curve, poor fit].

Question: For CCCCn1c(N)c(N(CCOC)C(=O)C2CCN(S(=O)(=O)c3ccc(C)cc3C)CC2)c(=O)[nH]c1=O, which Potency is on record?
Answer: The Potency was inconclusive: 9.28 µM [inhibitor, partial curve].

Question: Which Potency does the source give for COc1cc(C(=O)N2CCN(c3ccccn3)CC2)cc(OC)c1OC here?
Answer: The Potency was inconclusive: 18.5 µM [inhibitor, single point].

Question: Which Potency does the source give for C=CCN(C(=O)CSc1nc2ccsc2c(=O)n1Cc1ccccn1)c1ccccc1 here?
Answer: Its Potency is “inactive”.

Question: For CSCCC(NC(=O)c1ccccc1)C(=O)N1CCN(C(c2ccccc2)c2ccccc2)CC1 (centres undefined), which Potency is on record?
Answer: Its Potency is active: 1.85 µM.

Question: Which Potency does the source give for Cc1ccc(S(=O)(=O)CCc2nc3ccccc3[nH]2)cc1C here?
Answer: Its Potency is inconclusive: 0.928 µM [inhibitor, full curve, poor fit].

Question: With Cc1cccc(CSc2nnc(-c3ccco3)o2)c1 as the compound, how does the Potency read?
Answer: The Potency was inconclusive: 3.29 µM [inhibitor, single point].

Question: With C/C(Nc1cccc(F)c1)=C(/C#N)C(N)=O as the compound, how does the Potency read?
Answer: The Potency was inconclusive: 3.29 µM [inhibitor, partial curve, poor fit].

Question: With Cc1cccc(N(CC(=O)NC2CCCC2)C(=O)CNC(=O)c2ccco2)c1C as the compound, how does the Potency read?
Answer: Its Potency is inconclusive: 11.7 µM [inhibitor, single point].

Question: For Cc1nnc(SCC(=O)NC2CCCc3c2cnn3-c2ccccc2F)o1 (centres undefined), which Potency is on record?
Answer: Its Potency is inconclusive: 16.5 µM [inhibitor, partial curve, poor fit].

Question: For Cc1c(N(C)S(=O)(=O)c2cc(C(=O)Nc3ccccn3)ccc2Cl)c(=O)n(-c2ccccc2)n1C, which Potency is on record?
Answer: Its Potency is inconclusive: 18.5 µM [inhibitor, single point].

Question: For COc1ccc(CCN2C(=O)CC(C(C)c3ccccc3)C2=O)cc1OC (centres undefined), which activity change, negative = inhibition is on record?
Answer: The activity change, negative = inhibition was inactive: 52.1% [at 1.15 µM].

Question: For CCCCn1c(N)c(N(CCOC)C(=O)c2ccc(Br)s2)c(=O)[nH]c1=O, which Potency is on record?
Answer: The Potency was inconclusive: 0.657 µM [inhibitor, full curve, poor fit].

Question: With COc1ccc(NC(=O)C2CC(=O)N/C(=N/NC(=O)c3ccc(Cl)cc3)S2)cc1 (centres undefined) as the compound, how does the Potency read?
Answer: Its Potency is inconclusive: 10.4 µM [inhibitor, single point].

Question: Which Potency does the source give for O=C(c1ccccc1)c1coc2ccc(O)c(CN3CCOCC3)c12 here?
Answer: Its Potency is “inactive”.

Question: Which Potency does the source give for N/C(=N\N=C\c1ccc(Br)o1)c1nonc1N here?
Answer: Its Potency is “inactive”.

Question: With O=C(Nc1c2c(nn1-c1ccc(F)cc1)CS(=O)C2)c1ccc2c(c1)OCO2 (centres undefined) as the compound, how does the Potency read?
Answer: The Potency was “inactive”.

Question: Which Potency does the source give for CCn1ncc(/C=N/NS(=O)(=O)c2ccc(Cl)cc2)c1C here?
Answer: The Potency was “inactive”.

Question: With CCc1[nH]nc(C(=O)N2CCCC(N3CCN(c4ccccc4C)CC3)C2)c1C (centres undefined) as the compound, how does the Potency read?
Answer: Its Potency is inconclusive: 11.7 µM [inhibitor, partial curve, poor fit].

Question: For CN(c1ccccc1)S(=O)(=O)c1cccc(NC(=O)c2ccc(=O)[nH]c2)c1, which Potency is on record?
Answer: The Potency was inconclusive: 4.65 µM [inhibitor, partial curve, poor fit].

Question: For COc1cc(-c2cc(C(=O)Nc3ccc(S(N)(=O)=O)cc3)c3ccccc3n2)cc(OC)c1OC, which Potency is on record?
Answer: Its Potency is inconclusive: 14.7 µM [inhibitor, single point].

Question: Which Potency does the source give for CCOC(=O)C1CCN(c2c([N+](=O)[O-])c(C(Cl)Cl)nn2-c2ccccc2)CC1 here?
Answer: Its Potency is inconclusive: 18.5 µM [inhibitor, single point].

Question: For O=c1c2c(nc3nc(CCc4ccccc4)[nH]n13)CCC2, which Potency is on record?
Answer: The Potency was inconclusive: 16.5 µM [inhibitor, partial curve, poor fit].

Question: With Cn1c(=O)[nH]c(=O)c2c1nc(N1CCCC1)n2CCCSc1nnnn1-c1ccccc1 as the compound, how does the Potency read?
Answer: Its Potency is active: 6.57 µM.

Question: For CCN(Cc1ccccc1)c1ccc(/C=N/NS(=O)(=O)c2ccc(C)c([N+](=O)[O-])c2)cc1, which Potency is on record?
Answer: The Potency was “inactive”.

Question: Which Potency does the source give for CCOc1cc(C=O)ccc1OCCn1c([N+](=O)[O-])cnc1C here?
Answer: Its Potency is “inactive”.

Question: For CC(=O)N1c2ccc(S(=O)(=O)NCC3CCC(C(=O)NC4CCC(C)CC4)CC3)cc2CC1C (centres undefined), which Potency is on record?
Answer: Its Potency is inconclusive: 4.65 µM [inhibitor, partial curve].

Question: With CCCCn1c(N)c(N(CCC(C)C)C(=O)c2cccc(-n3cnnn3)c2)c(=O)[nH]c1=O as the compound, how does the Potency read?
Answer: Its Potency is “inactive”.

Question: With CC(=O)NS(=O)(=O)c1ccc(NC(=O)/C=C/c2ccccc2)cc1 as the compound, how does the Potency read?
Answer: The Potency was inconclusive: 18.5 µM [inhibitor, single point].

Question: With NC(=O)C1CCN(C(=S)c2cccs2)CC1 as the compound, how does the Potency read?
Answer: Its Potency is inconclusive: 16.5 µM [inhibitor, single point].

Question: With CCC1=C(OC(=O)N(CC)CC)N2C(=O)OC(=NCC(=O)OC)[C@]2(Cc2ccccc2)[C@H]2C1=CC[C@H]1C(=O)NC(=O)[C@H]12 as the compound, how does the Potency read?
Answer: The Potency was inconclusive: 18.5 µM [inhibitor, single point].

Question: Which Potency does the source give for COC(=O)c1cn(NC(=O)CCC2CCCC2)c(=O)c2ccccc12 here?
Answer: The Potency was inconclusive: 14.7 µM [inhibitor, single point].

Question: With Cc1cc(NC(=O)C(C)SCC(=O)OCC(=O)N(C)c2ccccc2)no1 (centres undefined) as the compound, how does the Potency read?
Answer: The Potency was inconclusive: 18.5 µM [inhibitor, single point].

Question: For CCC1CCCCN1C(=O)N[C@@H](Cc1ccccc1)C(=O)O (some centres undefined), which Potency is on record?
Answer: Its Potency is “inactive”.

Reference: PubChem BioAssay AID504834 (National Center for Advancing Translational Sciences (NCATS), 2011)
